# According to the supplement of paper PMC8728848:
# Some of the results follow.
# Assays:
# Assay in all cases: glycan array binding signal (z-score within array); higher = stronger binding
# Details in all cases: glycan notation: IUPAC condensed, linker removed
# [1] = target: Gal(b1-4)GlcNAc(b1-2)[Gal(b1-4)GlcNAc(b1-6)]Man(a1-6)[Gal(b1-4)GlcNAc(b1-2)Man(a1-3)]Man(b1-4)GlcNAc(b1-4)[Fuc(a1-6)]GlcNAc
# Method in brief: (§1)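 Arrays were curated from the Consortium for Functional Glycomics database, 3228 in total, and kept only where the protein sequence was available. Binding is expressed as a within-array Z-score. This score was averaged across arrays of the same protein sequence at different concentrations or buffers and across linkers, and negative values can be read as non-binding.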
# [2] = target: Gal(b1-4)GlcNAc(b1-2)[Gal(b1-4)GlcNAc(b1-6)]Man(a1-6)[GlcNAc(b1-4)][Gal(b1-4)GlcNAc(b1-2)Man(a1-3)]Man(b1-4)GlcNAc(b1-4)GlcNAc
# Method in brief: as §1
# [3] = target: Gal(b1-4)GlcNAc(b1-2)[Gal(b1-4)GlcNAc(b1-6)]Man(a1-6)[GlcNAc(b1-4)][Gal(b1-4)GlcNAc(b1-2)[Gal(b1-4)GlcNAc(b1-4)]Man(a1-3)]Man(b1-4)GlcNAc(b1-4)[Fuc(a1-6)]GlcNAc
# Method in brief: as §1
# [4] = target: Gal(b1-4)GlcNAc(b1-3)Gal(b1-3)GalNAc
# Method in brief: as §1
# [5] = target: Gal(b1-4)GlcNAc(b1-3)Gal(b1-3)GlcNAc
# Method in brief: as §1
# [6] = target: Gal(b1-4)GlcNAc(b1-3)Gal(b1-4)Glc
# Method in brief: as §1
# [7] = target: Gal(b1-4)GlcNAc(b1-3)Gal(b1-4)GlcNAc
# Method in brief: as §1
# [8] = target: Gal(b1-4)GlcNAc(b1-3)Gal(b1-4)GlcNAc(b1-2)Man(a1-3)[Gal(b1-4)GlcNAc(b1-3)Gal(b1-4)GlcNAc(b1-2)Man(a1-6)]Man(b1-4)GlcNAc(b1-4)GlcNAc
# Method in brief: as §1
# [9] = target: Gal(b1-4)GlcNAc(b1-3)Gal(b1-4)GlcNAc(b1-2)Man(a1-3)[Gal(b1-4)GlcNAc(b1-3)Gal(b1-4)GlcNAc(b1-2)Man(a1-6)]Man(b1-4)GlcNAc(b1-4)[Fuc(a1-6)]GlcNAc
# Method in brief: as §1
# [10] = target: Gal(b1-4)GlcNAc(b1-3)Gal(b1-4)GlcNAc(b1-2)[Gal(b1-4)GlcNAc(b1-3)Gal(b1-4)GlcNAc(b1-6)]Man(a1-6)[Gal(b1-4)GlcNAc(b1-3)Gal(b1-4)GlcNAc(b1-2)Man(a1-3)]Man(b1-4)GlcNAc(b1-4)GlcNAc
# Method in brief: as §1
# [11] = target: Gal(b1-4)GlcNAc(b1-3)Gal(b1-4)GlcNAc(b1-2)[Gal(b1-4)GlcNAc(b1-3)Gal(b1-4)GlcNAc(b1-6)]Man(a1-6)[Gal(b1-4)GlcNAc(b1-3)Gal(b1-4)GlcNAc(b1-2)Man(a1-3)]Man(b1-4)GlcNAc(b1-4)[Fuc(a1-6)]GlcNAc
# Method in brief: as §1
# [12] = target: Gal(b1-4)GlcNAc(b1-3)Gal(b1-4)GlcNAc(b1-3)Gal(b1-4)GlcNAc
# Method in brief: as §1
# [13] = target: Gal(b1-4)GlcNAc(b1-3)Gal(b1-4)GlcNAc(b1-3)Gal(b1-4)GlcNAc(b1-2)Man(a1-3)[Gal(b1-4)GlcNAc(b1-3)Gal(b1-4)GlcNAc(b1-3)Gal(b1-4)GlcNAc(b1-2)Man(a1-6)]Man(b1-4)GlcNAc(b1-4)GlcNAc
# Method in brief: as §1
# [14] = target: Gal(b1-4)GlcNAc(b1-3)Gal(b1-4)GlcNAc(b1-3)Gal(b1-4)GlcNAc(b1-2)Man(a1-3)[Gal(b1-4)GlcNAc(b1-3)Gal(b1-4)GlcNAc(b1-3)Gal(b1-4)GlcNAc(b1-2)Man(a1-6)]Man(b1-4)GlcNAc(b1-4)[Fuc(a1-6)]GlcNAc
# Method in brief: as §1
# [15] = target: Gal(b1-4)GlcNAc(b1-3)Gal(b1-4)GlcNAc(b1-3)Gal(b1-4)GlcNAc(b1-2)[Gal(b1-4)GlcNAc(b1-3)Gal(b1-4)GlcNAc(b1-3)Gal(b1-4)GlcNAc(b1-6)]Man(a1-6)[Gal(b1-4)GlcNAc(b1-3)Gal(b1-4)GlcNAc(b1-3)Gal(b1-4)GlcNAc(b1-2)Man(a1-3)]Man(b1-4)GlcNAc(b1-4)[Fuc(a1-6)]GlcNAc
# Method in brief: as §1
# [16] = target: Gal(b1-4)GlcNAc(b1-3)Gal(b1-4)GlcNAc(b1-3)Gal(b1-4)GlcNAc(b1-3)Gal(b1-4)GlcNAc(b1-2)Man(a1-3)[Gal(b1-4)GlcNAc(b1-3)Gal(b1-4)GlcNAc(b1-3)Gal(b1-4)GlcNAc(b1-3)Gal(b1-4)GlcNAc(b1-2)Man(a1-6)]Man(b1-4)GlcNAc(b1-4)GlcNAc
# Method in brief: as §1
# [17] = target: Gal(b1-4)GlcNAc(b1-3)Gal(b1-4)GlcNAc(b1-3)Gal(b1-4)GlcNAc(b1-3)Gal(b1-4)GlcNAc(b1-2)Man(a1-3)[Gal(b1-4)GlcNAc(b1-3)Gal(b1-4)GlcNAc(b1-3)Gal(b1-4)GlcNAc(b1-3)Gal(b1-4)GlcNAc(b1-2)Man(a1-6)]Man(b1-4)GlcNAc(b1-4)[Fuc(a1-6)]GlcNAc
# Method in brief: as §1
# [18] = target: Gal(b1-4)GlcNAc(b1-3)Gal(b1-4)GlcNAc(b1-3)Gal(b1-4)GlcNAc(b1-3)Gal(b1-4)GlcNAc(b1-2)[Gal(b1-4)GlcNAc(b1-3)Gal(b1-4)GlcNAc(b1-3)Gal(b1-4)GlcNAc(b1-3)Gal(b1-4)GlcNAc(b1-6)]Man(a1-6)[Gal(b1-4)GlcNAc(b1-3)Gal(b1-4)GlcNAc(b1-3)Gal(b1-4)GlcNAc(b1-3)Gal(b1-4)GlcNAc(b1-2)Man(a1-3)]Man(b1-4)GlcNAc(b1-4)[Fuc(a1-6)]GlcNAc
# Method in brief: as §1
# [19] = target: Gal(b1-4)GlcNAc(b1-3)Gal(b1-4)GlcNAc(b1-3)Gal(b1-4)GlcNAc(b1-3)Gal(b1-4)GlcNAc(b1-3)Gal(b1-4)GlcNAc(b1-2)Man(a1-3)[Gal(b1-4)GlcNAc(b1-3)Gal(b1-4)GlcNAc(b1-3)Gal(b1-4)GlcNAc(b1-3)Gal(b1-4)GlcNAc(b1-3)Gal(b1-4)GlcNAc(b1-2)Man(a1-6)]Man(b1-4)GlcNAc(b1-4)GlcNAc
# Method in brief: as §1
# [20] = target: Gal(b1-4)GlcNAc(b1-3)Gal(b1-4)GlcNAc(b1-3)Gal(b1-4)GlcNAc(b1-3)Gal(b1-4)GlcNAc(b1-3)Gal(b1-4)GlcNAc(b1-2)Man(a1-3)[Gal(b1-4)GlcNAc(b1-3)Gal(b1-4)GlcNAc(b1-3)Gal(b1-4)GlcNAc(b1-3)Gal(b1-4)GlcNAc(b1-3)Gal(b1-4)GlcNAc(b1-2)Man(a1-6)]Man(b1-4)GlcNAc(b1-4)[Fuc(a1-6)]GlcNAc
# Method in brief: as §1
# [21] = target: Gal(b1-4)GlcNAc(b1-3)Gal(b1-4)GlcNAc(b1-3)Gal(b1-4)GlcNAc(b1-3)Gal(b1-4)GlcNAc(b1-3)Gal(b1-4)GlcNAc(b1-2)[Gal(b1-4)GlcNAc(b1-3)Gal(b1-4)GlcNAc(b1-3)Gal(b1-4)GlcNAc(b1-3)Gal(b1-4)GlcNAc(b1-3)Gal(b1-4)GlcNAc(b1-6)]Man(a1-6)[Gal(b1-4)GlcNAc(b1-3)Gal(b1-4)GlcNAc(b1-3)Gal(b1-4)GlcNAc(b1-3)Gal(b1-4)GlcNAc(b1-3)Gal(b1-4)GlcNAc(b1-2)Man(a1-3)]Man(b1-4)GlcNAc(b1-4)[Fuc(a1-6)]GlcNAc
# Method in brief: as §1
# [22] = target: Gal(b1-4)GlcNAc(b1-3)Gal(b1-4)GlcNAc(b1-3)Gal(b1-4)GlcNAc(b1-3)Gal(b1-4)GlcNAc(b1-3)Gal(b1-4)GlcNAc(b1-3)Gal(b1-4)GlcNAc(b1-2)Man(a1-3)[Gal(b1-4)GlcNAc(b1-3)Gal(b1-4)GlcNAc(b1-3)Gal(b1-4)GlcNAc(b1-3)Gal(b1-4)GlcNAc(b1-3)Gal(b1-4)GlcNAc(b1-3)Gal(b1-4)GlcNAc(b1-2)Man(a1-6)]Man(b1-4)GlcNAc(b1-4)GlcNAc
# Method in brief: as §1
# [23] = target: Gal(b1-4)GlcNAc(b1-3)Gal(b1-4)GlcNAc(b1-3)GalNAc
# Method in brief: as §1
# [24] = target: Gal(b1-4)GlcNAc(b1-3)Gal(b1-4)GlcNAc(b1-3)[Gal(b1-4)GlcNAc(b1-3)Gal(b1-4)GlcNAc(b1-6)]GalNAc
# Method in brief: as §1
# [25] = target: Gal(b1-4)GlcNAc(b1-3)Gal(b1-4)GlcNAc(b1-6)[Gal(b1-3)]GalNAc
# Method in brief: as §1
# [26] = target: Gal(b1-4)GlcNAc(b1-3)Gal(b1-4)[Fuc(a1-3)]GlcNAc(b1-3)Gal(b1-4)[Fuc(a1-3)]GlcNAc
# Method in brief: as §1
# [27] = target: Gal(b1-4)GlcNAc(b1-3)GalNAc
# Method in brief: as §1
# [28] = target: Gal(b1-4)GlcNAc(b1-3)[Fuc(a1-3)GlcNAc(b1-6)]Gal(b1-4)Glc
# Method in brief: as §1
# [29] = target: Gal(b1-4)GlcNAc(b1-3)[Gal(b1-4)GlcNAc(b1-6)]Gal(b1-4)GlcNAc
# Method in brief: as §1
# [30] = target: Gal(b1-4)GlcNAc(b1-3)[GlcNAc(b1-6)]Gal(b1-4)GlcNAc
# Method in brief: as §1
# [31] = target: Gal(b1-4)GlcNAc(b1-6)Gal(b1-4)GlcNAc
# Method in brief: as §1
# [32] = target: Gal(b1-4)GlcNAc(b1-6)GalNAc
# Method in brief: as §1
# [33] = target: Gal(b1-4)GlcNAc(b1-6)[Gal(b1-3)]GalNAc
# Method in brief: as §1
# [34] = target: Gal(b1-4)GlcNAc(b1-6)[Gal(b1-4)GlcNAc(b1-3)]GalNAc
# Method in brief: as §1
# Gal(b1-4)GlcNAc6P = target: Gal(b1-4)GlcNAc6P
# Method in brief: as §1
# Gal(b1-6)Gal = target: Gal(b1-6)Gal
# Method in brief: as §1
# Gal3S(b1-3)GalNAc = target: Gal3S(b1-3)GalNAc
# Method in brief: as §1
# Gal3S(b1-3)GlcNAc = target: Gal3S(b1-3)GlcNAc
# Method in brief: as §1
binder,measurement,setting,value
SP15308C-bot-338-23-338 (Bacteroides ovatus) (protein) DEWTDEQFKQLISFKTQPGGWGVTDVHVRYANSAKYTYNLPVLVSGSTDNTDDRLVSFSLRDDTLDILNFEKFGNRPELYFRELPQKYYSFPKELTIPAGQSHALLPIEFSLDGLDDSQKWALPLKVCEDANGTYAVNPRKYYRTAVLRPILFNEFSGRFSGSSLLGTMAGESDIKFSSTEIKLNVVTDSIVFFYAGQRTEDYEDRINYKVFLQFTGDKVDSKKDLYKMKIWAENEKLKFNSYSTPTYKVSSEMDATKTYLKHTYIVISDIDFDFVDYTSVPNYEIEYNMKGGLSVSRDLDTRKPDEDQGSDSKWW,glycan array binding signal (z-score),[1],-0.048
same,glycan array binding signal (z-score),[2],-0.299
same,glycan array binding signal (z-score),[3],0.457
same,glycan array binding signal (z-score),[4],-0.244
same,glycan array binding signal (z-score),[5],-0.598
same,glycan array binding signal (z-score),[6],-0.369
same,glycan array binding signal (z-score),[7],-0.716
same,glycan array binding signal (z-score),[8],1.12
same,glycan array binding signal (z-score),[9],0.198
same,glycan array binding signal (z-score),[10],1.57
same,glycan array binding signal (z-score),[11],1.76
same,glycan array binding signal (z-score),[12],-0.191
same,glycan array binding signal (z-score),[13],4.37
same,glycan array binding signal (z-score),[14],0.715
same,glycan array binding signal (z-score),[15],0.777
same,glycan array binding signal (z-score),[16],0.102
same,glycan array binding signal (z-score),[17],1.51
same,glycan array binding signal (z-score),[18],1.89
same,glycan array binding signal (z-score),[19],2.06
same,glycan array binding signal (z-score),[20],2.46
same,glycan array binding signal (z-score),[21],6.22
same,glycan array binding signal (z-score),[22],0.957
same,glycan array binding signal (z-score),[23],-0.235
same,glycan array binding signal (z-score),[24],0.534
same,glycan array binding signal (z-score),[25],-0.223
same,glycan array binding signal (z-score),[26],-0.013
same,glycan array binding signal (z-score),[27],-0.42
same,glycan array binding signal (z-score),[28],-0.649
same,glycan array binding signal (z-score),[29],0.136
same,glycan array binding signal (z-score),[30],-0.08
same,glycan array binding signal (z-score),[31],-0.279
same,glycan array binding signal (z-score),[32],-0.147
same,glycan array binding signal (z-score),[33],0.095
same,glycan array binding signal (z-score),[34],0.237
same,glycan array binding signal (z-score),Gal(b1-4)GlcNAc6P,-0.041
same,glycan array binding signal (z-score),Gal(b1-6)Gal,-0.259
same,glycan array binding signal (z-score),Gal3S(b1-3)GalNAc,-0.134
same,glycan array binding signal (z-score),Gal3S(b1-3)GlcNAc,0.427

# In a second layout: entries from further up.
binder	measurement	setting	value
SP15308C-bot-338-23-338 (Bacteroides ovatus) (protein) DEWTDEQFKQLISFKTQPGGWGVTDVHVRYANSAKYTYNLPVLVSGSTDNTDDRLVSFSLRDDTLDILNFEKFGNRPELYFRELPQKYYSFPKELTIPAGQSHALLPIEFSLDGLDDSQKWALPLKVCEDANGTYAVNPRKYYRTAVLRPILFNEFSGRFSGSSLLGTMAGESDIKFSSTEIKLNVVTDSIVFFYAGQRTEDYEDRINYKVFLQFTGDKVDSKKDLYKMKIWAENEKLKFNSYSTPTYKVSSEMDATKTYLKHTYIVISDIDFDFVDYTSVPNYEIEYNMKGGLSVSRDLDTRKPDEDQGSDSKWW	glycan array binding signal (z-score)	[14]	0.715
same	glycan array binding signal (z-score)	[15]	0.777
